Results published in patent US20140018418A1 (priority 2007, published 2014).
At least one structure is not confirmed: it was looked up by name or label, or the drawing left a doubt.

Test system: H5N1 influenza virus A/Hanoi/30408/2005 (clone 7), oseltamivir sensitive strain
Format: cell-based
Conditions: read-out: Viral Proliferation Inhibitory Activity (IC50)

`CCC(CC)O[C@@H]1C=C(C(=O)O)C[C@H](N)[C@H]1NC(C)=O` [Oseltamivir carboxylate] was tested, and the IC50 was 0.11 nM.
